{"source": "PubChem BioAssay AID1259308 (NCATS, 2017)", "test": "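Knock-downs that increase output of a recombinant reporter protein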 (primary screen)", "cell system": "human HEK293 embryonic kidney cells stably expressing firefly luciferase (HEK-CMV-Luc2-Hygro)", "reagent": "single siRNA against human genes, 0.8 pmol siRNA per well", "time to read-out": "72 h", "detection": "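Reporter luminescence and viable-cell signal on separate replicate plates, given as percent of non-targeting control and median/MAD z-scores, plus per-cell luciferase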", "reading the numbers": "total luciferase, z-score and total luciferase, % of control: higher = more reporter protein produced", "rule for the call": "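An siRNA counts as active if its total luciferase robust z-score exceeds 3; genes with two or more such siRNAs out of three were retested with fresh siRNAs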", "calls": "active = raised luciferase; inactive = no rise", "note": "The whole screen tested about 59,000 reagents; shown is an unselected part. In the full data, about 1,510 (2.6%) got an active call. 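Calls use total luciferase alone and ignore viability, so some active siRNAs may act by altering cell number.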 The numbers tell different reagents against one gene apart. Not all columns of the deposit are shown."}
{"target gene": "LINGO1", "siRNA no.": 1, "total luciferase, z-score": -0.0767, "total luciferase, % of control": 80.4, "call": "inactive"}
{"target gene": "LINGO1", "siRNA no.": 2, "total luciferase, z-score": 0.543, "total luciferase, % of control": 92.7, "call": "inactive"}
{"target gene": "LINGO1", "siRNA no.": 3, "total luciferase, z-score": 0.294, "total luciferase, % of control": 87.7, "call": "inactive"}
{"target gene": "GPR155", "siRNA no.": 1, "total luciferase, z-score": 0.111, "total luciferase, % of control": 84.1, "call": "inactive"}
{"target gene": "GPR155", "siRNA no.": 2, "total luciferase, z-score": -0.175, "total luciferase, % of control": 78.4, "call": "inactive"}
{"target gene": "GPR155", "siRNA no.": 3, "total luciferase, z-score": 0.58, "total luciferase, % of control": 93.4, "call": "inactive"}

Taken from above:
Result of LINGO1 #2 under “total luciferase, z-score”: 0.543
Entry for GPR155 #1 in “total luciferase, z-score”: 0.111

Next entries follow:
{"target gene": "ZNF79", "siRNA no.": 1, "total luciferase, z-score": -0.173, "total luciferase, % of control": 78.4, "call": "inactive"}
{"target gene": "ZNF79", "siRNA no.": 2, "total luciferase, z-score": -0.641, "total luciferase, % of control": 69.1, "call": "inactive"}
{"target gene": "ZNF79", "siRNA no.": 3, "total luciferase, z-score": -3.04, "total luciferase, % of control": 21.5, "call": "inactive"}
{"target gene": "RTP4", "siRNA no.": 1, "total luciferase, z-score": -0.236, "total luciferase, % of control": 77.2, "call": "inactive"}
{"target gene": "RTP4", "siRNA no.": 2, "total luciferase, z-score": -0.773, "total luciferase, % of control": 66.5, "call": "inactive"}
{"target gene": "RTP4", "siRNA no.": 3, "total luciferase, z-score": 1.73, "total luciferase, % of control": 116, "call": "inactive"}
